Reference: PubChem BioAssay AID1688 (National Center for Advancing Translational Sciences (NCATS), 2009)
Out of some 220,000 compounds screened, about 2,400 (1.1%) were called active. Inconclusive results, whose numbers are uncertain, are shown with a selection of clear calls. Calls follow the shape of the dose curve; as a rule, active = well fitted inhibition curve with a large enough effect; inconclusive = small, poorly fitted or top-dose-only effect, or effect the other way; inactive = no such curve, though single readings can be large or run the other way. A potency beside an inconclusive call is a rough fit, not a confirmed value.

Test: qHTS Multiplex Assay to Identify Dual Action Probes in a Cell Model of Huntington: Aggregate Formation (GFP); also: nearly all actives have a fitted effect of over 60% in size
Details: PC12 HttQ103-GFP aggregates, Acumen cytometry, 40 h; activity change, negative = inhibition: at 46.1 µM (top of the series)
Summary of the method: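 Huntingtin Q103 exon 1–GFP aggregates in induced PC12 cells (100 nM tebufenozide) were quantified by cytometry from lysates, with compounds dosed in titration.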
% is scaled to controls: 0 for no effect and ±100 for the full control effect; potency is read from the fitted curve at half-maximal effect.

Row | Structure (SMILES) | Potency | activity change, negative = inhibition
1 | O=P(NCc1ccccc1)(Oc1ccccc1)Oc1ccccc1 | inconclusive: 35.5 µM [inhibitor, single point] | –
2 | Cc1ccc(/C=C2/C(=O)NC(=O)N(Cc3ccc(F)cc3)C2=O)o1 | – | inactive: -2.26% [at 9.22 µM]
3 | CCn1c(C)[n+](CC(O)COCC2CC=CCC2)c2ccccc21 (centres undefined) | inconclusive: 8.91 µM [inhibitor, single point] | –
4 | COc1cc2c(cc1O)C[C@H]1NCCc3cc4c(c-2c31)OCO4 | inconclusive: 35.5 µM [inhibitor, single point] | –
5 | CSc1ncc(/C=C2/C(=O)NC(=O)N(C)C2=O)cn1 | inactive | –
6 | Cc1cc(C=C2C(=O)NC(=S)NC2=O)c(C)n1C1CCCC1 | inconclusive: 12.6 µM [inhibitor, single point] | –
7 | Cc1cc(C)cc(NC(=O)Cn2c(=O)oc3cc(S(=O)(=O)N4CC(C)CC(C)C4)ccc32)c1 (centres undefined) | inconclusive: 35.5 µM [inhibitor, single point] | –
8 | O=[N+]([O-])C(Br)(CO)CO | inactive | –
9 | N#CCP(=S)(c1ccccc1)c1ccccc1 | inconclusive: 3.16 µM [inhibitor, single point] | –
10 | Cc1ccc(-n2c(O)c(C=Nc3ccc(S(N)(=O)=O)cc3)c(=O)[nH]c2=O)cc1 | inconclusive: 0.355 µM [activator, full curve, poor fit] | –
11 | CN1C(=O)C(=Cc2ccccc2Oc2ccc(Cl)c(F)c2)C(=O)N(C)C1=O | inactive | –
12 | CC(C)(O)[C@H]1O[C@H]2CC[C@@]3(C)[C@@](O)(CC[C@H]4Cc5c([nH]c6ccccc56)[C@@]43C)C2=CC1=O | inconclusive: 31.6 µM [inhibitor, single point] | –
13 | O=C1NC(=S)NC(=O)C1C/C=C/c1ccccc1 | – | inactive: 17.4% [at 9.22 µM]
14 | Cc1ccc(-n2c(O)c(/C=N/NC(=O)c3ccncc3)c(=O)[nH]c2=O)cc1C | inactive | –
15 | C=C(C=O)C[C@@H]1C[C@H](O)C2OC3C[C@]4(C)OC5/C=C\CC6OC7C(CC=CCC6OC5CCCC4OC3CC2O1)OC1CC2OC3CC(=O)OC3C[C@@H](C)C[C@@]2(C)OC1C[C@@H]7C (some centres undefined) | inconclusive: 5.62 µM [inhibitor, single point] | –
16 | CCN1C(=O)/C(=C\c2ccc([N+](=O)[O-])s2)C(=O)NC1=S | inactive | –
17 | O=Cc1cn(Cc2c(F)cccc2Cl)c2ccccc12 | inconclusive: 22.4 µM [inhibitor, partial curve] | –
18 | CN1CCCC(C(O)(c2ccccc2)c2ccccc2)C1 (centres undefined) | – | inactive: -15.7% [at 9.22 µM]
19 | CC(C)c1cccc(O)c(=O)c1 | inconclusive: 8.91 µM [inhibitor, partial curve] | –
20 | CCN1CCN(C(=O)COc2ccc(S(=O)(=O)N(C)Cc3ccccc3)cc2)CC1 | inconclusive: 2.82 µM [inhibitor, partial curve] | –
21 | O=C1NC(=O)N(Cc2ccccc2)C(=O)/C1=C/N1CCCc2ccccc21 | inactive | –
22 | Cc1sc2c(c1C)C(c1ccc(C(C)(C)C)cc1)=NCC(=O)N2CC(=O)Nc1nccs1 | inconclusive: 35.5 µM [inhibitor, single point] | –

Row | Structure (SMILES) | Potency | activity change, negative = inhibition
23 | CCC(C)C1N=C(c2ccccc2)c2cc(Cl)ccc2N(CC(=O)NCc2ccco2)C1=O (centres undefined) | inactive | –
24 | CC1=CC(=Cc2sc3ccccc3[n+]2C)C=C(C)O1 | inconclusive: 2.24 µM [inhibitor, partial curve] | –
25 | Cc1cc(N2C(=O)C3CCCN3C2c2sccc2C)no1 (centres undefined) | inconclusive: 35.5 µM [inhibitor, single point] | –
26 | C/C(=N\NC(=O)c1ccccc1O)c1c(O)n(Cc2ccccc2)c(=O)[nH]c1=O | – | inactive: -16.1% [at 9.22 µM]
27 | Cc1cc2ccccc2n1CCNC(=O)COc1ccccc1 | inconclusive: 1.26 µM [activator, single point] | –
28 | O=C(NC1CCCCCC1)c1ccc[nH]c1=S | inconclusive: 20 µM [activator, partial curve] | –
29 | CCC(=NCc1cc(OC)cc(OC)c1)c1c(O)n(C)c(=O)n(C)c1=O | inconclusive: 11.2 µM [inhibitor, single point] | –
30 | COc1ccc(CN2C(=O)NC(=O)/C(=C/c3cc(OC)c(OC)c(OC)c3)C2=O)cc1 | – | inactive: 4.37% [at 9.22 µM]
31 | CCCCCCn1c(O)c(C(C)=NC)c(=O)[nH]c1=O | inconclusive: 2.82 µM [inhibitor, partial curve] | –
32 | CNC(C(=O)c1ccccc1)C(OC)c1ccccc1 (centres undefined) | inconclusive: 35.5 µM [inhibitor, single point] | –
33 | CC[n+]1c(/C=C/N(C)c2ccccc2)sc2ccc(Cl)cc21 | active: 12.6 µM | –
34 | COc1ccc(C(=O)Oc2cccc3cccnc23)cc1S(=O)(=O)N1CCOCC1 | inconclusive: 5.62 µM [inhibitor, single point] | –
35 | CCOC(=O)C/C(C)=N/NC(=O)COc1ccccc1C | inconclusive: 3.55 µM [inhibitor, single point] | –
36 | C=CCOc1c(Cl)cc(CNc2ccc3[nH]c(=O)[nH]c3c2)cc1OC | inconclusive: 11.2 µM [activator, partial curve] | –
37 | CCC1(OC(=O)CN)C(=O)OCc2c1cc1n(c2=O)Cc2cc3ccccc3nc2-1 (centres undefined) | inconclusive: 5.62 µM [inhibitor, single point] | –
38 | CCN(CC)P(=O)(c1nccn1C)N(CC)CC | inconclusive: 8.91 µM [activator, partial curve] | –
39 | Cc1nc(N2CCN(Cc3ccccc3)CC2)nc2c1C(=O)CC(C)C2 (centres undefined) | inconclusive: 11.2 µM [inhibitor, partial curve, poor fit] | –
40 | O=c1[nH]c(=O)n(Cc2ccco2)c(O)c1/C=N/N1CCCCC1 | inactive | –
41 | O=C(c1cnn2c(C(F)(F)F)cc(-c3ccccc3)nc12)N1CCC2(CC1)OCCO2 | inactive | –
42 | CCOP(=O)(OCC)/C(=N/OC(=O)c1ccccc1C)C(N)=O | inconclusive: 12.6 µM [activator, partial curve] | –
43 | Nc1cc(Cl)c2nonc2c1[N+](=O)[O-] | active: 4.47 µM | –
44 | Nc1ccccc1N=Cc1c(O)n(CCC2=CCCCC2)c(=O)[nH]c1=O | inconclusive: 28.2 µM [activator, single point] | –

A different layout for 2 compounds above:
Row	Structure (SMILES)	Potency	activity change, negative = inhibition
26	C/C(=N\NC(=O)c1ccccc1O)c1c(O)n(Cc2ccccc2)c(=O)[nH]c1=O	–	inactive: -16.1% [at 9.22 µM]
43	Nc1cc(Cl)c2nonc2c1[N+](=O)[O-]	active: 4.47 µM	–
